T. brucei: 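Whole-parasite assay of Trypanosoma brucei over 72 hours; the read-out is not stated. Concentration: 30 µM. Higher reads as stronger inhibition (inferred: compounds with an IC50 in retests scored well above the rest). Values scatter widely below zero; nearly all retest evidence comes from the higher of the two concentrations used. Size under these conditions: about 64,000 compounds, about 940 of them at 50% or above in at least one test.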
Toxoplasma: 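Assay of Toxoplasma gondii numbers, read through their beta-galactosidase reporter with a colour substrate. Tested at 10 µM. The record gives no direction; the compounds picked for IC50 retests had high values, so higher reads as fewer parasites. Size under these conditions: about 67,000 compounds, about 260 of them at 50% or above in at least one test.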
Leishmania in macrophages: 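Cell assay of Leishmania donovani living inside macrophages; the read-out is not stated. Compounds at 30 µM. Higher reads as stronger inhibition (inferred: compounds with an IC50 in retests scored well above the rest). Size under these conditions: about 69,000 compounds, about 1,000 of them at 50% or above in at least one test.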

Each number is a percent effect as filed.
How 0% and 100% were set is not recorded. Most values in the screen are low, and negative values occur.
The compounds are a random part of those screened.
Two or more numbers in one place are separate tests of the same structure; such repeats can differ widely.
A dash means the value is not listed here; it may have been measured.

SMILES	T. brucei	Toxoplasma	Leishmania in macrophages
CCC(CO)N(Cc1cccs1)C(=O)CSC (stereo not given)	-12.72%	-5.625%	14.35%
O=C(O)C(F)(F)F.O=C(O)C(F)(F)F.O=C(c1cccnc1)N1CCC2(CC1)COC(COc1ccccn1)C2 (stereo not given)	36.29%	2.081%	24.79%
CCc1cc(NCC(O)CN2CCCCC2)ncn1 (stereo not given)	-65.89%	14.04%	36.45%
CN1CC2(CCN(Cc3cccc(C#N)c3)CC2)CC1=O	-2.169%	-6.638%	-0.7056%
Cc1cnn(CC2CCCN2Cc2cc(C)no2)c1 (stereo not given)	-	7.852%	6.651%
Cc1nc(NCC2CC2)nc2c1COCC21CCN(C(=O)NC(C)C)C1 (stereo not given)	-415.3%	-34.9%	52.42%
O=C(NCc1cn2c(n1)CN(CC1CCOCC1)CC2)C1CCC1.O=C(O)C(F)(F)F	-47.88%	-3.741%	28.87%
Cc1cc(C(=O)NCCN2CCCCC2C)nn1C(C)(C)C (stereo not given)	-37.93%	-0.4964%	27.04%
CCN(C(=O)CS(=O)(=O)Cc1cc(Cl)c2c(c1)OCCCO2)C1CC1	-44.45%	-	6.254%
Cc1nn(C2CCS(=O)(=O)C2)c(O)c1Cc1ccccc1Cl (stereo not given)	-37.25%	5.614%	16.96%
O=C1NC(c2cnc(C3CCC3)s2)Nc2ncccc21 (stereo not given)	-21.18%	2.296%	-10.09%
O=S(=O)(c1cccnc1)N1CCN(Cc2nc(-c3cccs3)cs2)CC1	2.912%	-12.71%	35.37% & 13.43%
COCCN1CCOCC12CCN(c1ccc(C#N)cc1)CC2.O=C(O)C(F)(F)F	-43.9%	-5.771%	3.251%
COc1ncccc1CNC(=O)c1cc(C)on1	-20.47%	-1.025%	19.69%
CC(C)c1cc(NC(=O)CN2CCn3c(nnc3C3CC3)C2)on1	-22.37%	-39.41%	3.001%
c1cncc(CN2CCC3(CCCN(c4nncs4)C3)C2)c1 (stereo not given)	-225.1%	-2.928%	13.48%
CN(Cc1ccsc1)C(=O)C1CCC(=O)N(Cc2ccccn2)C1 (stereo not given)	-20.6%	8.166%	15.72%
O=C(CSC1=NS(=O)(=O)c2cc(F)ccc2N1)Nc1cccc(Cl)c1	29.19%	-5.876%	18.17%
COCC(=O)N1Cc2nc3c(C)c(-c4cccs4)nn3c(O)c2C1	-3.361%	-0.2122%	5.671%
O=C(Cc1cccnc1)N1CCC2(CC1)CCN(C1CCOC1)C2.O=C(O)C(F)(F)F.O=C(O)C(F)(F)F (stereo not given)	-18.92%	-5.003%	-44.91%
Cc1cc(C2CCCN(C(=O)CCc3cscn3)C2)n[nH]1 (stereo not given)	-	6.038%	7.357%
Cc1cnn(CC2CN(c3cnc4ccccc4n3)CCO2)c1 (stereo not given)	4.41%	-	36.16%
O=C(O)C(F)(F)F.[H][C@@]12CN(Cc3nccn3C)C[C@@]1([H])N(Cc1cccc(C)c1)C(=O)CO2	-15.57%	0.7482%	18.91%
O=C(CCO)N1CC2(CCN(c3ccccc3)C2)C1	-14.89%	-3.646%	28.21%
CC(C)c1noc(CCC(=O)NCC2CCC(C(N)=O)CC2)n1 (stereo not given)	2.083%	-8.263%	22.86%
O=C(Cn1ccnc1)N1CCC(n2cc(-c3cccc(Cl)c3)nn2)CC1	-10.32%	-9.729%	-9.488%
Cc1cc(C)n(CC2CCCN2C(=O)CCc2cscn2)n1 (stereo not given)	-8.852%	-3.811%	6.34%
COc1cccc(C(=O)NC(C)CCN2CCOCC2)c1F (stereo not given)	-3.764%	-4.98%	4.79%
Cc1cc(C(=O)N2CCN(Cn3cc(Cl)cn3)CC2)c(C)o1	-33.46%	0.4225%	22.84%
O=C(C(c1ccccc1)N1CCc2cncnc2C1)N1CCCCC1 (stereo not given)	-35.66%	-34.14%	-1.732%
CC(C)Oc1nnc(SCC(=O)NCC(=O)N2CCCC2)s1	-50.71%	-7.513%	-4.522%
Cc1ccc(OCC(O)CNC(=O)C2(c3ccc(F)cc3)CC2)cc1 (stereo not given)	-23.44%	7.355%	-19.73%
CCC(C(=O)NCc1cccnc1)N(c1cccc(C)c1)S(C)(=O)=O (stereo not given)	6.448%	4.799%	12.06%
O=C(N[C@@H]1CCN(c2nccc3ccccc23)C[C@H]1O)c1cnccn1	-2.858%	-11.47%	7.669%
O=C(c1cc2c([nH]c1=O)CCC2)N1CCCC1c1ccccn1 (stereo not given)	6.083%	0.1732%	4.19%
COc1ccccc1C1CNC(=O)c2nc(-c3nccn3C)[nH]c2C1 (stereo not given)	-20.82%	-8.171%	-22.1%
Cc1ccc(C(=O)N2CCC3(CCCCC3)C2)c(=O)[nH]1	-27.99%	11.98%	56.07%
[H][C@@]12CS(=O)(=O)C[C@]1([H])N(C(=O)c1cn3ccsc3n1)CCN2C(=O)CC	3.253%	15.69%	8.978%
Cc1ccccc1C(=O)N1CCC2(CCC(C(=O)NCC3CC3)O2)CC1 (stereo not given)	-44.91%	-7.642%	10.31%
CCNC(=O)N1CCC(=Cc2ccccc2)CC1	-38.64%	7.223%	-4.739%
CN(C)CCN1C(=O)CCC12CCN(C(=O)c1cccnc1)CC2.O=C(O)C(F)(F)F.O=C(O)C(F)(F)F	75.6%	0.528%	9.569%
CCCN(Cc1cccnc1)Cc1ccc(C2CCCCO2)o1 (stereo not given)	-23.11%	-9.011%	25.98%
O=C(CN1CCC(Nc2ncccn2)CC1)Nc1ccccc1	2.918%	0.0271%	51.04%
CCSc1cncc(N2CCC(C(=O)Nc3ccccn3)CC2)n1	12.36%	5.114%	-12.53%
CCOCC(=O)N1CCCn2c(CN3CCCCC3)nnc2C1	-23.53%	-11.09%	10.31%
CCOc1cc(C(=O)N2CCN(CC)CC2)cc2occc12	27.42%	-1.831%	-20.1%
CS(=O)(=O)N1CCc2c(cccc2NC(=O)CC(F)(F)F)C1	33.98%	-0.05028%	-14.99%
COc1ccc(CN2CCCC2)cc1Oc1cccc(C#N)n1	-19%	-15.68%	10.63%
O=C(O)C(F)(F)F.[H][C@]12CCC[C@@]1(COc1ccccn1)CN(S(C)(=O)=O)C2	-36.44%	-6.328%	2.613%
O=C(O)C(F)(F)F.[H][C@@]12CCN(C3CCCCC3)C[C@]1(C(=O)N1CCCO1)CCO2	51.2%	0.1068%	3.842%
Cn1nccc1C(=O)N1CCC2(CC1)COC(COc1ccccn1)C2.O=C(O)C(F)(F)F (stereo not given)	32.46%	3.627%	26.32%
Cc1nc(CN2CCCC2c2c(C)nn(C)c2Cl)oc1C (stereo not given)	-27.88%	7.912%	-11.16%
COCCN1CCC(CN(C)c2nc3c(s2)c(C)nn3C)CC1	-21.9%	4.485%	34.73%
Clc1cc(Cl)cc(CN2CCC(NCc3cc[nH]n3)CC2)c1	90.13%	0.7156%	71.72%
O=C1CC2(CCCCN2C(=O)c2cccs2)CN1CC1CC1 (stereo not given)	-6.473%	4.284%	23.55%
CCN1CCN(C2CCN(Cc3c(C)noc3C)CC2)C1=O	10.32%	-	32.64%
CC(C)N1CCC2(C=C(C(=O)N(C)C)c3ccccc32)CC1.O=C(O)C(F)(F)F	-21.58%	-2.833%	-11.73%
NC(=O)N1CCCN(C2CCc3ccc(F)cc32)CC1 (stereo not given)	-19.49%	2.023%	26.39%
O=S1(=O)NCC2(CCCN(Cc3cccnc3)C2)Oc2ncccc21 (stereo not given)	-	13.99%	-2.432%
CS(=O)(=O)Cc1nc(CNc2ccc(F)c(F)c2)cs1	-22.04%	6.667%	-2.721%
Cn1nc(COCC2CC2)c2c1CN(C(=O)c1ccno1)CC2.O=C(O)C(F)(F)F	-20.8%	-12.91%	7.485% & -20.8%
Cc1cnn(CCC(=O)Nc2cccnc2N2CCC(CO)CC2)c1	-7.7%	13.85%	0.6072%
O=c1c(CN2CCCCCC2)coc(O)c1CN1CCCCCC1	14.22%	-	17.55%
CC(C)c1ncc2c(n1)CN(Cc1ccc3c(c1)OCCO3)CC2	26.27%	7.476%	40%

3 of the entries, repeated:

{"smiles": "O=C(CCO)N1CC2(CCN(c3ccccc3)C2)C1", "T. brucei": -14.89, "Toxoplasma": -3.646, "Leishmania in macrophages": 28.21}
{"smiles": "O=C(O)C(F)(F)F.O=C(O)C(F)(F)F.O=C(c1cccnc1)N1CCC2(CC1)COC(COc1ccccn1)C2", "stereo": "stereo not given", "T. brucei": 36.29, "Toxoplasma": 2.081, "Leishmania in macrophages": 24.79}
{"smiles": "CCN1CCN(C2CCN(Cc3c(C)noc3C)CC2)C1=O", "T. brucei": 10.32, "Leishmania in macrophages": 32.64}

The values are deposited in ChEMBL (CHEMBL3988442, “University of Dundee, Small-Polar-MMV Screening Library” (2021)).